Laboratory results taken from PubChem BioAssay AID504467 (National Center for Advancing Translational Sciences (NCATS), 2011).
The campaign covered roughly 330,000 compounds. About 7,700 (2.3%) were called active. Inconclusive means that the source gave no clear call. Such entries were picked first, then a sample of the others. Calls come from the whole dose curve; as a rule, active = well fitted inhibition curve with a large enough effect; inconclusive = small, poorly fitted or top-dose-only effect, or effect the other way; inactive = flat fitted curve, though single readings scatter. Potencies of inconclusive entries are doubtful fits and often do not repeat.

Test: qHTS screen for small molecules that inhibit ELG1-dependent DNA repair in human embryonic kidney (HEK293T) cells expressing luciferase-tagged ELG1; note: nearly all actives have a fitted effect of over 55% in size
Settings: HEK293T ELG1-luciferase reporter, luminescence, 16 h, DNA damage induced by 5-fluorouridine; activity change, negative = inhibition: at 46.1 µM (top of the series)
In short: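 Quantitative HTS, concentration-response format. 2,000 cells/well co-treated with 5-fluorouridine and compound, 16 hr in 5% CO2 at 37 °C; ONE-Glo luminescence read after 30 min.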
% is set by controls: 0 for no effect and ±100 for the full control effect; potency is the fitted concentration of half-maximal effect.

Row | Structure (SMILES) | Potency | activity change, negative = inhibition
1 | Cc1ccc(-c2ccc(/C=C3\C(=O)ON=C3c3ccccc3)o2)c([N+](=O)[O-])c1 | inconclusive: 23.1 µM [inhibitor, single point] | –
2 | COC(=O)C(C)N(C(=O)c1ccc(C(=O)c2ccccc2)cc1)c1c(C)cccc1C (stereo not drawn) | inconclusive: 32.6 µM [inhibitor, single point] | –
3 | N#Cc1c(NC(=O)CSC2=NCCS2)sc2c1CCCC2 | inconclusive: 29.1 µM [inhibitor, single point] | –
4 | COc1cccc(N=Nc2ccc(O)c3ncccc23)c1 | inconclusive: 13 µM [activator, single point] | –
5 | COc1ccc(NC(=O)Nc2ccc(C)cc2OC(F)F)cc1OC | inconclusive: 23.1 µM [inhibitor, single point] | –
6 | COc1ccccc1NC(=O)COC(=O)c1[nH]c(=O)[nH]c(=O)c1N | – | inactive: 21.3%
7 | O=C(CN1C(=O)c2ccc(Br)cc2C1=O)NCC1CCCO1 (stereo not drawn) | inconclusive: 25.9 µM [activator, single point] | –
8 | O=C(Nc1cc(Cl)ccc1N1CCOCC1)c1ccc(F)c(S(=O)(=O)N2CCOCC2)c1 | inconclusive: 14.6 µM [inhibitor, partial curve] | –
9 | COc1cc(OC)c2c(-c3ccccc3)cc(=O)oc2c1C(CCN1CCCCC1)c1ccc2c(c1)OCO2 (stereo not drawn) | – | inactive: -3.5%
10 | Cc1ccsc1/C=N/NC(=O)Cc1ccc(Cl)cc1 | – | inactive: -0.759%
11 | CCCCCCCCCCOC(=O)Cn1c(COc2ccc(OC)cc2)[n+](C)c2ccccc21 | inconclusive: 29.1 µM [inhibitor, single point] | –
12 | CCOC(=O)Nc1nc(-c2ccccc2)c(C(=O)c2ccccc2)s1 | inconclusive: 0.651 µM [inhibitor, single point] | –
13 | CCN1CCN(C(=O)CS(=O)(=O)Cc2nc(-c3cccc(OC)c3)oc2C)CC1 | – | inactive: -0.0005%
14 | N#Cc1ccc(-c2nc3ccc(Br)cc3c(=O)n2O)cc1 | active: 9.2 µM | –
15 | CCOC(=O)N1CCN(C(=O)CN(c2ccc(Oc3ccccc3)cc2)S(C)(=O)=O)CC1 | inconclusive: 29.1 µM [inhibitor, single point] | –
16 | CCOc1ccc(Br)cc1C(=O)Nc1ccc(C(=O)NCC(C)C)cc1 | inconclusive: 16.4 µM [inhibitor, partial curve, poor fit] | –
17 | COCCn1c(SCC(=O)Nc2cccc(S(N)(=O)=O)c2)nc2cc(Cl)ccc2c1=O | inconclusive: 29.1 µM [inhibitor, single point] | –
18 | Cc1nc(C)c(-c2csc(Nc3ccccn3)n2)s1 | inconclusive: 0.316 µM [activator, partial curve, poor fit] | –
19 | COc1ccc(N2CCN(C(=O)c3ccccc3NC(=O)c3ccccc3)CC2)cc1 | – | inactive: 0.667%
20 | COc1ccc2nc(/C(C#N)=C\c3ccc(C(=O)O)cc3)[nH]c2c1 | – | inactive: 22.3%
21 | CC(=O)Nc1nc(-c2ccc([N+](=O)[O-])cc2)cs1 | – | inactive: 3.49%
22 | COC(=O)n1ccc(C(=O)Nc2ccccc2F)n1 | inconclusive: 14.6 µM [activator, partial curve] | –
23 | Cc1ccc(C)c(/C=N/n2cc(-c3ccccc3)[nH]c2=S)c1 | inconclusive: 20.6 µM [inhibitor, partial curve, poor fit] | –
24 | CCOc1ccc(Oc2ccc(NS(=O)(=O)c3cc(C(=O)O)ccc3Cl)cc2)cc1 | – | inactive: 0.282%
25 | COc1ccc(NS(=O)(=O)c2cccc(C(=O)NNC(=O)c3ccc(NC(C)=O)cc3)c2)cc1 | – | inactive: 28.2%

Row | Structure (SMILES) | Potency | activity change, negative = inhibition
26 | Cn1c(O)c(N=NC(=O)c2cccc(S(=O)(=O)N3CCCCC3)c2)c2ccccc21 | active: 18.4 µM | –
27 | O=C(O)CCCCCN1C(=O)C(O)=C(C(=O)/C=C/c2ccccc2)C1c1ccccc1[N+](=O)[O-] (stereo not drawn) | – | inactive: 15.1%
28 | O=C(CCn1cccn1)N1CCCC(N2CCN(c3cccc(C(F)(F)F)c3)CC2)C1 (stereo not drawn) | – | inactive: -12.4%
29 | CCCOc1ccc(N2C(=O)CC(N3CCN(c4nc5ccccc5s4)CC3)C2=O)cc1 (stereo not drawn) | inconclusive: 18.4 µM [inhibitor, partial curve] | –
30 | Cc1nc(Nc2ccc(Cl)cc2)c2nnn(Cc3ccccc3)c2n1 | – | inactive: -1.38%
31 | Cc1ccc(NC(=O)COC(=O)c2ccc(-n3cnnn3)cc2)c(Br)c1 | inconclusive: 23.1 µM [activator, partial curve, poor fit] | –
32 | COc1cccc(NC(=O)CN(C)CC(=O)Nc2ccc(C)c([N+](=O)[O-])c2)c1 | active: 18.3 µM | –
33 | O=C(CSc1ncc(-c2ccc(F)cc2)[nH]1)N1CCCCC1 | inconclusive: 20.6 µM [activator, partial curve] | –
34 | O=c1oc(-c2ccccc2Cl)nc2ccsc12 | inconclusive: 29.1 µM [activator, partial curve, poor fit] | –
35 | COCCN(Cc1cc2cc(C)ccc2n2nnnc12)C(=S)Nc1ccc(C)cc1 | active: 16.4 µM | –
36 | COc1ccccc1/C=N/OCc1ccc(C#N)cc1 | – | inactive: 12.3%
37 | CCn1ccnc1CN(C)C(=O)c1ccc(OC2CCN(CCc3ccccc3)CC2)cc1 | – | inactive: 2.42%
38 | O=C(c1cccc(F)c1)N1CCN(c2ccc([N+](=O)[O-])c(N3CCOCC3)c2)CC1 | – | inactive: 5.42%
39 | CNC(=O)c1ccc(-c2cc(C(F)(F)F)nn2C)s1 | inconclusive: 18.3 µM [activator, single point] | –
40 | COc1cc2nc(SCc3ccc(Cl)cc3Cl)n(Cc3cccs3)c(=N)c2cc1OC | inconclusive: 29.1 µM [inhibitor, single point] | –
41 | CCOC(=O)CC(NC(=O)Cn1nnc(-c2ccccc2F)n1)c1ccccc1Cl (stereo not drawn) | inconclusive: 23.1 µM [inhibitor, single point] | –
42 | COc1ccc(CCNc2ccc(C(CC(N)=O)NC(=O)Cc3ccc(Br)cc3)cc2[N+](=O)[O-])cc1 (stereo not drawn) | – | inactive: -6.36%
43 | COc1ccc(S(=O)(=O)N(CC(N)=O)C2CCCCC2)cc1Cl | – | inactive: -1.62%
44 | CN(CC(=O)Nc1ccc(Cl)c(C(F)(F)F)c1)C(=O)Cc1n[nH]c(=O)c2ccccc12 | inconclusive: 20.6 µM [inhibitor, single point] | –
45 | CC(C)CC(C(=O)NC(C)(C)C)N(Cc1cccs1)C(=O)c1snc(C(N)=O)c1N (stereo not drawn) | – | inactive: -12.1%
46 | Cc1ccc(NS(=O)(=O)c2cc([N+](=O)[O-])ccc2N/N=C/c2sc(N3CCOCC3)nc2-c2ccccc2)c(C)c1 | – | inactive: 4.58%
47 | CC(C)Oc1ccc2c3c(c(=O)oc2c1)CCC3 | inconclusive: 9.2 µM [activator, partial curve] | –
48 | COc1cc(C(C(=O)NC2CCCCC2)N(Cc2cccs2)C(=O)Cc2c[nH]c3ccccc23)cc(OC)c1OC (stereo not drawn) | active: 14.6 µM | –
49 | O=C1CN(C(=O)c2ccccc2[N+](=O)[O-])C(c2ccccc2)c2cc(Br)ccc2N1 (stereo not drawn) | active: 18.3 µM | –
50 | CC(C)CNC(=S)Nc1ccc(Oc2ccccc2)cc1 | – | inactive: -0.516%

Some of the entries so far, with tabs:
Row	Structure (SMILES)	Potency	activity change, negative = inhibition
27	O=C(O)CCCCCN1C(=O)C(O)=C(C(=O)/C=C/c2ccccc2)C1c1ccccc1[N+](=O)[O-] (stereo not drawn)	–	inactive: 15.1%
28	O=C(CCn1cccn1)N1CCCC(N2CCN(c3cccc(C(F)(F)F)c3)CC2)C1 (stereo not drawn)	–	inactive: -12.4%
41	CCOC(=O)CC(NC(=O)Cn1nnc(-c2ccccc2F)n1)c1ccccc1Cl (stereo not drawn)	inconclusive: 23.1 µM [inhibitor, single point]	–
50	CC(C)CNC(=S)Nc1ccc(Oc2ccccc2)cc1	–	inactive: -0.516%

Additional records.

Row | Structure (SMILES) | Potency | activity change, negative = inhibition
51 | CCOC(=O)c1c(NC(=O)CCC(=O)N(CC)CC)sc2c1CC(C)(C)OC2 | inconclusive: 16.4 µM [inhibitor, partial curve] | –
52 | S=C(c1cn(CCOc2ccccc2)c2ccccc12)N1CCCC1 | – | inactive: 4.86%
53 | Cc1cc(OCCSc2nnc(-c3cccs3)n2C)ccc1Cl | inconclusive: 11.6 µM [inhibitor, partial curve] | –
54 | COc1ccc(Cn2c(=O)[nH]c3cc(C(=O)N4CCN(c5ccccn5)CC4)ccc3c2=O)cc1 | inconclusive: 23.1 µM [inhibitor, single point] | –
55 | CCCNC(=O)Cn1c(-c2ccc(F)cc2)cc(C(=O)OCC)c1C | – | inactive: -11.8%
56 | CCc1ccc(Nc2nc3ccccc3c(=O)s2)cc1 | – | inactive: 21.9%
57 | COc1ccc(-c2cc(C(=O)Nc3c(C)n(C)n(-c4ccccc4)c3=O)c3ccccc3n2)cc1OC | active: 7.3 µM | –
58 | COc1ccc2oc(-c3cccc(NC(=O)CSc4ccc(Cl)cc4)c3)nc2c1 | inconclusive: 3.26 µM [activator, partial curve] | –
59 | Cc1nc(N)c(CC(Br)CBr)c(Cl)n1 (stereo not drawn) | inconclusive: 6.51 µM [inhibitor, full curve, poor fit] | –
60 | O=C(NNc1ccccc1[N+](=O)[O-])Nc1cccc(Cl)c1 | – | inactive: -24.9%
61 | CC(Oc1cccc(Cl)c1)C(=O)Nc1ccccc1C(=O)N1CCCCC1 (stereo not drawn) | – | inactive: -8.34%
62 | O=C(O)C1CCCN1c1ncnc2ccccc12 (stereo not drawn) | inconclusive: 29.1 µM [activator, single point] | –
63 | NC(=O)COC(=O)c1cc(-c2ccco2)nc2ccccc12 | inconclusive: 25.9 µM [activator, single point] | –
64 | COCCCNC(=O)c1cc2cc3cc(OC)ccc3nc2o1 | inconclusive: 23.1 µM [activator, single point] | –
65 | Cc1[nH]c2ccccc2c1C1=NNC(=Nc2ccc(F)cc2)SC1 | inconclusive: 32.6 µM [inhibitor, single point] | –
66 | COc1ccc(C(NC(=O)c2c(F)c(F)c(F)c(F)c2F)c2ccccc2)cc1 (stereo not drawn) | inconclusive: 29.1 µM [inhibitor, single point] | –
67 | CCCOc1ccc(/C=N/Nc2ccccc2[N+](=O)[O-])c(OCCC)c1 | inconclusive: 14.6 µM [activator, partial curve] | –
68 | NC(=O)CC(NC(=O)c1ccc(Br)cc1)c1ccc(N2CCC(Cc3ccccc3)CC2)c([N+](=O)[O-])c1 (stereo not drawn) | inconclusive: 2.91 µM [inhibitor, full curve] | –
69 | S=C1NCN(Cc2ccco2)CN1Cc1ccco1 | inconclusive: 6.51 µM [inhibitor, single point] | –
70 | O=C(N/N=C/c1cccc([N+](=O)[O-])c1)c1cccc2cc[nH]c12 | – | inactive: -7.43%
71 | Cc1cccc(NC(=S)N2CCN(c3ccc(F)cc3)CC2)c1 | – | inactive: 1.73%
72 | O=C(Oc1ccc2ccc(=O)oc2c1)c1ccc([N+](=O)[O-])cc1 | – | inactive: 13.4%
73 | CCCC(c1nnnn1Cc1ccc(OC)cc1)N1CCN(C(=O)c2ccco2)CC1 (stereo not drawn) | – | inactive: -3.08%
